{"source": "PubChem BioAssay AID1224831 (NIAID, 2016)", "test": "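Retesting screen hits on the TLR4-driven TNF response with six separate siRNAs each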 (follow-up of hits)", "system": "human THP-1 B5 monocytic leukaemia cells carrying a TNF promoter luciferase reporter, made macrophage-like with PMA", "reagents": "single siRNA against human genes, 50 nM", "duration": "about 68 h of knock-down, then 4 h LPS", "treatment": "LPS (Salmonella minnesota, TLR-grade) at 10 ng/ml for 4 h; PMA 5 ng/ml present during knock-down", "measurement": "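Firefly to renilla luciferase ratio of a TNF promoter reporter after 4 h LPS, scaled to plate median, turned into robust z-score, averaged over replicates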", "direction": "TNF reporter z-score: higher = stronger LPS-induced TNF reporter signal; z-score, median over gene's siRNAs: higher = stronger TNF reporter signal across the gene's siRNAs", "active means": "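Active when the replicate mean z-score is about -1 or lower, or about 1.5 or higher; lowered and raised TNF reporter signal both count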", "meaning of the calls": "active = changed TNF reporter (either direction); inactive = little change", "note": "Here is an unselected part of about 3,500 reagents. Of all reagents, 731 (21%) got an active call. 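Active means either lowered or raised reporter signal; the gene-median score did not drive the per-siRNA calls.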 A number with no mark means an inactive call. Reagents against one gene are numbered here."}
{"target": "ARID1B", "siRNA no.": 1, "TNF reporter z-score, replicate mean": "-1.11 (active)", "z-score, median over gene's siRNAs": -0.835}
{"target": "ARID1B", "siRNA no.": 2, "TNF reporter z-score, replicate mean": "-1.21 (active)", "z-score, median over gene's siRNAs": -0.835}
{"target": "ARID1B", "siRNA no.": 3, "TNF reporter z-score, replicate mean": -0.22, "z-score, median over gene's siRNAs": -0.835}
{"target": "ARID1B", "siRNA no.": 4, "TNF reporter z-score, replicate mean": "-1.47 (active)", "z-score, median over gene's siRNAs": -0.835}
{"target": "ARID1B", "siRNA no.": 5, "TNF reporter z-score, replicate mean": -0.56, "z-score, median over gene's siRNAs": -0.835}
{"target": "ARID1B", "siRNA no.": 6, "TNF reporter z-score, replicate mean": 0.71, "z-score, median over gene's siRNAs": -0.835}
{"target": "THUMPD2", "siRNA no.": 1, "TNF reporter z-score, replicate mean": -0.25, "z-score, median over gene's siRNAs": 0.71}
{"target": "THUMPD2", "siRNA no.": 2, "TNF reporter z-score, replicate mean": "1.98 (active)", "z-score, median over gene's siRNAs": 0.71}
{"target": "THUMPD2", "siRNA no.": 3, "TNF reporter z-score, replicate mean": -0.49, "z-score, median over gene's siRNAs": 0.71}
{"target": "THUMPD2", "siRNA no.": 4, "TNF reporter z-score, replicate mean": 0.08, "z-score, median over gene's siRNAs": 0.71}
{"target": "THUMPD2", "siRNA no.": 5, "TNF reporter z-score, replicate mean": 1.34, "z-score, median over gene's siRNAs": 0.71}
{"target": "THUMPD2", "siRNA no.": 6, "TNF reporter z-score, replicate mean": 1.47, "z-score, median over gene's siRNAs": 0.71}
{"target": "MAFG", "siRNA no.": 1, "TNF reporter z-score, replicate mean": 0.04, "z-score, median over gene's siRNAs": -0.065}
{"target": "MAFG", "siRNA no.": 2, "TNF reporter z-score, replicate mean": -0.17, "z-score, median over gene's siRNAs": -0.065}
{"target": "MAFG", "siRNA no.": 3, "TNF reporter z-score, replicate mean": 0.42, "z-score, median over gene's siRNAs": -0.065}
{"target": "MAFG", "siRNA no.": 4, "TNF reporter z-score, replicate mean": 0.26, "z-score, median over gene's siRNAs": -0.065}
{"target": "MAFG", "siRNA no.": 5, "TNF reporter z-score, replicate mean": -0.4, "z-score, median over gene's siRNAs": -0.065}
{"target": "MAFG", "siRNA no.": 6, "TNF reporter z-score, replicate mean": -0.86, "z-score, median over gene's siRNAs": -0.065}

Records above called active (4):
{"target": "ARID1B", "siRNA no.": 1, "TNF reporter z-score, replicate mean": "-1.11 (active)", "z-score, median over gene's siRNAs": -0.835}
{"target": "ARID1B", "siRNA no.": 2, "TNF reporter z-score, replicate mean": "-1.21 (active)", "z-score, median over gene's siRNAs": -0.835}
{"target": "ARID1B", "siRNA no.": 4, "TNF reporter z-score, replicate mean": "-1.47 (active)", "z-score, median over gene's siRNAs": -0.835}
{"target": "THUMPD2", "siRNA no.": 2, "TNF reporter z-score, replicate mean": "1.98 (active)", "z-score, median over gene's siRNAs": 0.71}
